In this assay the target is EGFR used for panning and coated on the 96-well ELISA plate (UniProt P00533). The assay can be described thus: phage display panning (4 rounds) and ELISA on a 96-well plate coated with an EGFR.

No constants are given. Whether binding was seen depends on the method and setting. Some entries that bind do so weakly or less than the wild type.

B1: GC1118 (antibody, human IgG1, kappa, V domains shown)
VH: EVQLVESGGGVVQPGGSLRLSCAASGFTFSDYDMSWIRQAPGKGLEWVSGILGGSERSYYRDSVKGRFTISRDNSRKTLYLQMNSLRAEDTAVYYCARHGSPGYTLYAWDYWGQGTTVTVSS
VL: DIVMTQTPLSLPVTPGEPASISCRSNQDLTHSNGNTYLEWYLQKPGQSPRLLIYKVSNRFSGVPDRFSGSGAGTDFTLRISRVEAEDVGVYYCMQGTHWPWTFGQGTKVDIKR
For the molecule B1, the binding result is recorded as “binds”.

(Values after patent US20190119388A1 (GREEN CROSS, published 2019).)
